Consider 3 molecules from article PMC3658879.

These are yes or no findings as the source states them, for the method shown. In cells and extracts the contact can be indirect. Some binding calls cover weakened binding; strength is not graded here. Tags and fused reporters may be left off the sequences shown.

The labels stand for the following.
B1: NEPH1, V5-tagged (protein, UniProt Q96J84 17-757)
chain: QGTQTRFSQEPADQTVVAGQRAVLPCVLLNYSGIVQWTKDGLALGMGQGLKAWPRYRVVGSADAGQYNLEITDAELSDDASYECQATEAALRSRRAKLTVLIPPEDTRIDGGPVILLQAGTPHNLTCRAFNAKPAATIIWFRDGTQQEGAVASTELLKDGKRETTVSQLLINPTDLDIGRVFTCRSMNEAIPSGKETSIELDVHHPPTVTLSIEPQTVQEGERVVFTCQATANPEILGYRWAKGGFLIEDAHESRYETNVDYSFFTEPVSCEVHNKVGSTNVSTLVNVHFAPRIVVDPKPTTTDIGSDVTLTCVWVGNPPLTLTWTKKDSNMVLSNSNQLLLKSVTQADAGTYTCRAIVPRIGVAEREVPLYVNGPPIISSEAVQYAVRGDGGKVECFIGSTPPPDRIAWAWKENFLEVGTLERYTVERTNSGSGVLSTLTINNVMEADFQTHYNCTAWNSFGPGTAIIQLEEREVLPVGIIAGATIGASILLIFFFIALVFFLYRRRKGSRKDVTLRKLDIKVETVNREPLTMHSDREDDTASVSTATRVMKAIYSSFKDDVDLKQDLRCDTIDTREEYEMKDPTNGYYNVRAHEDRPSSRAVLYADYRAPGPARFDGRPSSRLSHSSGYAQLNTYSRGPASDYGPEPTPPGPAAPAGTDTTSQLSYENYEKFNSHPFPGAAGYPTYRLGYPQAPPSGLERTPYEAYDPIGKYATATRFSYTSQHSDYGQRFQQRMQTHV
B2: nephrin, V5-tagged (protein, UniProt O60500 23-1241)
chain: QLAIPASVPRGFWALPENLTVVEGASVELRCGVSTPGSAVQWAKDGLLLGPDPRIPGFPRYRLEGDPARGEFHLHIEACDLSDDAEYECQVGRSEMGPELVSPRVILSILVPPKLLLLTPEAGTMVTWVAGQEYVVNCVSGDAKPAPDITILLSGQTISDISANVNEGSQQKLFTVEATARVTPRSSDNRQLLVCEASSPALEAPIKASFTVNVLFPPGPPVIEWPGLDEGHVRAGQSLELPCVARGGNPLATLQWLKNGQPVSTAWGTEHTQAVARSVLVMTVRPEDHGAQLSCEAHNSVSAGTQEHGITLQVTFPPSAIIILGSASQTENKNVTLSCVSKSSRPRVLLRWWLGWRQLLPMEETVMDGLHGGHISMSNLTFLARREDNGLTLTCEAFSEAFTKETFKKSLILNVKYPAQKLWIEGPPEGQKLRAGTRVRLVCLAIGGNPEPSLMWYKDSRTVTESRLPQESRRVHLGSVEKSGSTFSRELVLVTGPSDNQAKFTCKAGQLSASTQLAVQFPPTNVTILANASALRPGDALNLTCVSVSSNPPVNLSWDKEGERLEGVAAPPRRAPFKGSAAARSVLLQVSSRDHGQRVTCRAHSAELRETVSSFYRLNVLYRPEFLGEQVLVVTAVEQGEALLPVSVSANPAPEAFNWTFRGYRLSPAGGPRHRILSSGALHLWNVTRADDGLYQLHCQNSEGTAEARLRLDVHYAPTIRALQDPTEVNVGGSVDIVCTVDANPILPGMFNWERLGEDEEDQSLDDMEKISRGPTGRLRIHHAKLAQAGAYQCIVDNGVAPPARRLLRLVVRFAPQVEHPTPLTKVAAAGDSTSSATLHCRARGVPNIVFTWTKNGVPLDLQDPRYTEHTYHQGGVHSSLLTIANVSAAQDYALFTCTATNALGSDQTNIQLVSISRPDPPSGLKVVSLTPHSVGLEWKPGFDGGLPQRFCIRYEALGTPGFHYVDVVPPQATTFTLTGLQPSTRYRVWLLASNALGDSGLADKGTQLPITTPGLHQPSGEPEDQLPTEPPSGPSGLPLLPVLFALGGLLLLSNASCVGGVLWQRRLRRLAEGISEKTEAGSEEDRVRNEYEESQWTGERDTQSSTVSTTEAEPYYRSLRDFSPQLPPTQEEVSYSRGFTGEDEDMAFPGHLYDEVERTYPPSGAWGPLYDEVQMGPWDLHWPEDTYQDPRGIYDQVAGDLDTLEPDSLPFELRGHLV
B3: TRPC6, V5-tagged (protein, UniProt Q9Y210 1-931)
chain: MSQSPAFGPRRGSSPRGAAGAAARRNESQDYLLMDSELGEDGCPQAPLPCYGYYPCFRGSDNRLAHRRQTVLREKGRRLANRGPAYMFSDRSTSLSIEEERFLDAAEYGNIPVVRKMLEECHSLNVNCVDYMGQNALQLAVANEHLEITELLLKKENLSRVGDALLLAISKGYVRIVEAILSHPAFAEGKRLATSPSQSELQQDDFYAYDEDGTRFSHDVTPIILAAHCQEYEIVHTLLRKGARIERPHDYFCKCNDCNQKQKHDSFSHSRSRINAYKGLASPAYLSLSSEDPVMTALELSNELAVLANIEKEFKNDYKKLSMQCKDFVVGLLDLCRNTEEVEAILNGDVETLQSGDHGRPNLSRLKLAIKYEVKKFVAHPNCQQQLLSIWYENLSGLRQQTMAVKFLVVLAVAIGLPFLALIYWFAPCSKMGKIMRGPFMKFVAHAASFTIFLGLLVMNAADRFEGTKLLPNETSTDNAKQLFRMKTSCFSWMEMLIISWVIGMIWAECKEIWTQGPKEYLFELWNMLDFGMLAIFAASFIARFMAFWHASKAQSIIDANDTLKDLTKVTLGDNVKYYNLARIKWDPSDPQIISEGLYAIAVVLSFSRIAYILPANESFGPLQISLGRTVKDIFKFMVIFIMVFVAFMIGMFNLYSYYIGAKQNEAFTTVEESFKTLFWAIFGLSEVKSVVINYNHKFIENIGYVLYGVYNVTMVIVLLNMLIAMINSSFQEIEDDADVEWKFARAKLWFSYFEEGRTLPVPFNLVPSPKSLFYLLLKLKKWISELFQGHKKGFQEDAEMNKINEEKKLGILGSHEDLSKLSLDKKQVGHNKQPSIRSSEDFHLNSFNNPPRQYQKIMKRLIKRYVLQAQIDKESDEVNEGELKEIKQDISSLRYELLEEKSQNTEDLAELIRELGEKLSMEPNQEETNR

In the first test the target is T1, podocin, canonical isoform (Pod^canon), FLAG-tagged (human) (UniProt Q9NP85).
T1 sequence: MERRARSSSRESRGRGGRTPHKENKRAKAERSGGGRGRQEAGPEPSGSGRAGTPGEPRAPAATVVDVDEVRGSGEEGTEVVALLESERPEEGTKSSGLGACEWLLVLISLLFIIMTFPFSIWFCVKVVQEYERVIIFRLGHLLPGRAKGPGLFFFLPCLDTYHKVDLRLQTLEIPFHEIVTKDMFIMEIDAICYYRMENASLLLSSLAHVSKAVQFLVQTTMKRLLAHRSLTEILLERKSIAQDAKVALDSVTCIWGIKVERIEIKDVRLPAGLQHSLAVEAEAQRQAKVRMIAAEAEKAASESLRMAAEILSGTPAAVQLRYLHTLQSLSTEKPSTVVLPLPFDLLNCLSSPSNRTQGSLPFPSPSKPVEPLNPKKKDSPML
In words: co-IP; FLAG- and V5-tagged proteins expressed in HEK293T cells; lysis 24 h after transfection in IP buffer (1% Triton X-100, 20 mM Tris pH 7.5, 25 mM NaCl, 50 mM NaF, 15 mM Na4P2O7, 1 mM EDTA); M2 anti-FLAG agarose beads, 1 h at 4°C, three washes; Western blot with V5 antibody. On the technique in general: Immunoblotting shows a protein as a band on a membrane.
Turning to B1, the binding entry is “binds”.
Still for that read-out and setting: the result for B2 reads “binds”.
The same measure, in the same setting: the result for B3 reads “binds”.

The next test addresses T2, podocin, short isoform (Pod^short), FLAG-tagged (human) (UniProt Q9NP85).
T2 sequence: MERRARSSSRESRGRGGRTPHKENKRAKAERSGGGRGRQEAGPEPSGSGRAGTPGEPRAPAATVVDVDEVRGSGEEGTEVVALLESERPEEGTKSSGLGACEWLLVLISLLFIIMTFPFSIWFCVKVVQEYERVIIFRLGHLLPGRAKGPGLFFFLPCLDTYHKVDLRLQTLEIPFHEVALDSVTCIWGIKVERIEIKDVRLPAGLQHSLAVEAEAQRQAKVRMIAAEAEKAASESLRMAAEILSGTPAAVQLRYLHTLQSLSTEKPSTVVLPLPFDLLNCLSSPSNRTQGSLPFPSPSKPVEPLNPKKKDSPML
The test is described as above.
B1: the binding result was “binds”.
On the same count and under the same terms, with B2 the entry was “binds”.
Still for that read-out and setting: the result for B3 reads “binds”.
